# Assay results as given in paper PMC7819943, “Rice protein-binding microarrays: a tool to detect cis-acting elements near promoter regions in rice”.
# The chains behind the UniProt entries cited, without tags or fusion partners.
# UniProt Q0JBA9, entry or part of it: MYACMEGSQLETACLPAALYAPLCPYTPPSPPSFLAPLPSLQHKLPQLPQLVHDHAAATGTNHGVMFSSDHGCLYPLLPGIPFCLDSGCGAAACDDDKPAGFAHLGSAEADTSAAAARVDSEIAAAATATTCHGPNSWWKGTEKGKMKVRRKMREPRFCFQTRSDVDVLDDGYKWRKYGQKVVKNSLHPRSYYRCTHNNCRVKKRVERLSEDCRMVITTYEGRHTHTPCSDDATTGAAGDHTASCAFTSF
# The list shows a part of the results.
# Biological target: OsWRKY34 (Oryza sativa, UniProt Q0JBA9 1-250)
# Test: protein-binding microarray (RPBM); PBS, 2% BSA, 51.3 ng/ul salmon testes DNA, 50 uM zinc acetate, 200 nM TF, 25 C, 1 h; high values mean tight binding
# Conditions: protein: recombinant; tags: N-terminal polyhistidine and DsRed monomer fusion (pET32a); label: CyDye5-dUTP incorporated in the synthesized complementary strand; 3' TTTTT single-stranded linker to array surface; dsDNA, one strand shown
# Method in brief: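 Transcription factors, each fused N-terminally to a polyhistidine tag and DsRed, were expressed in E. coli BL21-CodonPlus and purified on Ni–NTA. A custom Agilent array was made double-stranded by primer extension with Cy5-dUTP and blocked with 2% BSA. It was incubated with 200 nM protein in PBS, 2% BSA, salmon testes DNA and 50 µM zinc acetate at 25 °C for 1 h, then washed. The binding signal is per-feature fluorescence intensity (arbitrary units) read on an Axon 4000B scanner.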
row,Sequence,binding signal
1,TCCAAGTCCAGTGGCTCTACGACAACTCCACACACTAACTCGGAGTCACCTAGTGCAG,9490 fluorescence intensity (a.u.)
2,TTTCTGCTGTGTCTGTGCGAGTTTGTTTTCTCTGAATCTCCGGAGTCACCTAGTGCAG,9680 fluorescence intensity (a.u.)
3,CACCTGTGGGCTAGATCAAAGAGAGGTAGCGGGCTGGGTTCGGAGTCACCTAGTGCAG,8620 fluorescence intensity (a.u.)
4,ATATGGGTCCCACGGGTTTATTATTTTTTCCGTATCGAATCGGAGTCACCTAGTGCAG,9630 fluorescence intensity (a.u.)
5,GCTTCCTTCTGGACCAACGTCTATCCACCGTTCCATAGCACGGAGTCACCTAGTGCAG,9380 fluorescence intensity (a.u.)
6,ATTGTCCATGTCTATTACTCTACTTCTTAGCTACTTCTATCGGAGTCACCTAGTGCAG,12700 fluorescence intensity (a.u.)
7,TCGTCTCGCGGTTTCCATACAAACCGTGCTATTAGTTTTTCGGAGTCACCTAGTGCAG,9520 fluorescence intensity (a.u.)
8,ATCTAAATGCATATGATTTCTTGTGTGTTGTAGTGGTGAGCGGAGTCACCTAGTGCAG,8470 fluorescence intensity (a.u.)
9,CACACGCGCCCACCTCGCCGATTTCTCCTCCACGCACGGGCGGAGTCACCTAGTGCAG,10000 fluorescence intensity (a.u.)
10,AAACAACTCACGCTGTCACTCACGCACGCATATCTTCCAACGGAGTCACCTAGTGCAG,8990 fluorescence intensity (a.u.)
11,CATCACCCCAGTTGATATCCCGTGCTTTTACTATGGGATACGGAGTCACCTAGTGCAG,8230 fluorescence intensity (a.u.)
12,AAGTGGTTCTAGGGGTGTTTTAATTTTGCATGTCAACCTACGGAGTCACCTAGTGCAG,10800 fluorescence intensity (a.u.)
13,GAGGAGGCGGGGAGGTGGGAGCGAGCTCGCTAGCTTAGGCCGGAGTCACCTAGTGCAG,9290 fluorescence intensity (a.u.)
14,AATCTCCAACCCTTCACACTCTCCTCTCATCCACGTAAACCGGAGTCACCTAGTGCAG,8880 fluorescence intensity (a.u.)
15,TCTTCCCGGTTGCTTCAGAGCCCATATTAACGCGACGTTCCGGAGTCACCTAGTGCAG,8210 fluorescence intensity (a.u.)
16,CATTGTCAGGGACAGCCTCGTAATTTTGCTGCCGGCCGGACGGAGTCACCTAGTGCAG,8880 fluorescence intensity (a.u.)
17,CTGCTCCGCTATTGTAGCTTTTGCTCGCTTTGCTTAGCTTCGGAGTCACCTAGTGCAG,8880 fluorescence intensity (a.u.)
18,GTGTGTTATAGGAGACGCATTTATGGGTGTGGGTATGACTCGGAGTCACCTAGTGCAG,9340 fluorescence intensity (a.u.)
19,GACACGGTTTTCGAAATATATTTTGACTTTGTGTTTTCTACGGAGTCACCTAGTGCAG,9060 fluorescence intensity (a.u.)
20,ACCGGATCCGGACCATCCCCAGCCACACGATCTCGCCCCTCGGAGTCACCTAGTGCAG,8190 fluorescence intensity (a.u.)
21,CTAAATATTTAACGCTGTTGACTTTTTAAAACATATTTGACGGAGTCACCTAGTGCAG,9280 fluorescence intensity (a.u.)

row,Sequence,binding signal
1,ATGATAAAACATGCGGAACACTTTGCAACATTTTACGTCTCGGAGTCACCTAGTGCAG,9080 fluorescence intensity (a.u.)
2,CCTTTCCACCGAGAGAAAATTTTTTGATCTGTTTGTTGTTCGGAGTCACCTAGTGCAG,9670 fluorescence intensity (a.u.)
3,AGCTTTCGTTGTTGGTTCTTGTTTTGAGGGAATCGTATGCCGGAGTCACCTAGTGCAG,10800 fluorescence intensity (a.u.)
4,TGTTTTTGAGTTGTGTTTTCTTATCTAAGCGCTAGAGCAACGGAGTCACCTAGTGCAG,10400 fluorescence intensity (a.u.)
5,CAAGAAAATCACGGCCCAATACTACAAGGCCCATATCTCTCGGAGTCACCTAGTGCAG,9070 fluorescence intensity (a.u.)
6,ACCCGTCATTCCGTCCGAACATGTCTGCGGCCGTCACGTGCGGAGTCACCTAGTGCAG,8270 fluorescence intensity (a.u.)
7,GTGTTTTTTCTATTCCTCTGTTTCTTCATTCCTACGATTCCGGAGTCACCTAGTGCAG,9100 fluorescence intensity (a.u.)
8,ATCGATCCTGCCGTTTCGTTTCAGCGCTTTGTTTGCTTGACGGAGTCACCTAGTGCAG,13000 fluorescence intensity (a.u.)
9,ATCGCTTTTCAAACCTGTCCAAATGTCTATTTTCTCAGTTCGGAGTCACCTAGTGCAG,11700 fluorescence intensity (a.u.)
10,TTTGGCATTAACCAGTCCTGCTTTCCTCTACTTTAATCACCGGAGTCACCTAGTGCAG,8450 fluorescence intensity (a.u.)
11,ATGATTTAGCCAGACAATGGTTCATCATCCATCCTTGATTCGGAGTCACCTAGTGCAG,10400 fluorescence intensity (a.u.)
12,TTCTCTCTCTCCTGTGTTTTGTCTACCACGTTCTCAACCCCGGAGTCACCTAGTGCAG,12300 fluorescence intensity (a.u.)
13,GTGGGTGGGTTTTCTTCTCCAACGAAACTCTATCCCCTCTCGGAGTCACCTAGTGCAG,13200 fluorescence intensity (a.u.)
14,TGCATTTGTTCTTGATTTTAATTTTGTTTTTGCTCATGGTCGGAGTCACCTAGTGCAG,9670 fluorescence intensity (a.u.)
15,TCCGAAGTCTCCTCTTGTCACCAGCACGCTTGAGCTCCCGCGGAGTCACCTAGTGCAG,8380 fluorescence intensity (a.u.)
16,CTAACTTATGTTTTATTCCACAATGTCTATTGTTCACCTTCGGAGTCACCTAGTGCAG,8060 fluorescence intensity (a.u.)
17,GCAGGCACAATAGCATACTATAAACCAACTATAAACACACCGGAGTCACCTAGTGCAG,8520 fluorescence intensity (a.u.)
18,TATACCATTAATATTTGCGTATTTGTAATGATGCTATTGCCGGAGTCACCTAGTGCAG,8380 fluorescence intensity (a.u.)
19,TTCGCGGCTTCGCCTATCATGCTCACTGCCTAACGGCCTCCGGAGTCACCTAGTGCAG,8250 fluorescence intensity (a.u.)
20,ACAGCTTGCCGCCACCACCACACCACGCCGCTCGCCGCCCCGGAGTCACCTAGTGCAG,8950 fluorescence intensity (a.u.)
21,TTAGGGGTTTTCATTATACTGTAAGTATATCTTTTTATTTCGGAGTCACCTAGTGCAG,11600 fluorescence intensity (a.u.)

# Two records drawn at random from the list so far:
row,Sequence,binding signal
1,ATGATAAAACATGCGGAACACTTTGCAACATTTTACGTCTCGGAGTCACCTAGTGCAG,9080 fluorescence intensity (a.u.)
9,CACACGCGCCCACCTCGCCGATTTCTCCTCCACGCACGGGCGGAGTCACCTAGTGCAG,10000 fluorescence intensity (a.u.)
